Test results as given in patent publication US11220671B2, “Methods for the maturation of cardiomyocytes on amniotic fluid cell-derived ECM, cellular constructs, and uses for cardiotoxicity and proarrhythmic screening of drug compounds” (STEMBIOSYS, INC., priority 2019, dated 2022).

B1: Hypoxia up-regulated protein 1 (protein, UniProt Q9Y4L1 33-999, looked up)
Hypoxia up-regulated protein 1: LAVMSVDLGSESMKVAIVKPGVPMEIVLNKESRRKTPVIVTLKENERFFGDSAASMAIKNPKATLRYFQHLLGKQADNPHVALYQARFPEHELTFDPQRQTVHFQISSQLQFSPEEVLGMVLNYSRSLAEDFAEQPIKDAVITVPVFFNQAERRAVLQAARMAGLKVLQLINDNTATALSYGVFRRKDINTTAQNIMFYDMGSGSTVCTIVTYQMVKTKEAGMQPQLQIRGVGFDRTLGGLEMELRLRERLAGLFNEQRKGQRAKDVRENPRAMAKLLREANRLKTVLSANADHMAQIEGLMDDVDFKAKVTRVEFEELCADLFERVPGPVQQALQSAEMSLDEIEQVILVGGATRVPRVQEVLLKAVGKEELGKNINADEAAAMGAVYQAAALSKAFKVKPFVVRDAVVYPILVEFTREVEEEPGIHSLKHNKRVLFSRMGPYPQRKVITFNRYSHDFNFHINYGDLGFLGPEDLRVFGSQNLTTVKLKGVGDSFKKYPDYESKGIKAHFNLDESGVLSLDRVESVFETLVEDSAEEESTLTKLGNTISSLFGGGTTPDAKENGTDTVQEEEESPAEGSKDEPGEQVELKEEAEAPVEDGSQPPPPEPKGDATPEGEKATEKENGDKSEAQKPSEKAEAGPEGVAPAPEGEKKQKPARKRRMVEEIGVELVVLDLPDLPEDKLAQSVQKLQDLTLRDLEKQEREKAANSLEAFIFETQDKLYQPEYQEVSTEEQREEISGKLSAASTWLEDEGVGATTVMLKEKLAELRKLCQGLFFRVEERKKWPERLSALDNLLNHSSMFLKGARLIPEMDQIFTEVEMTTLEKVINETWAWKNATLAEQAKLPATEKPVLLSKDIEAKMMALDREVQYLLNKAKFTKPRPRPKDKNGTRAEPPLNASASDQGEKVIPPAGQTEDAEPISEPEKVETGSEPGDTEPLELGGPGAEPEQKEQSTGQKRPLKNDEL
B2: Nidogen-1 (protein, UniProt P14543 29-1247, looked up)
Nidogen-1: LSRQELFPFGPGQGDLELEDGDDFVSPALELSGALRFYDRSDIDAVYVTTNGIIATSEPPAKESHPGLFPPTFGAVAPFLADLDTTDGLGKVYYREDLSPSITQRAAECVHRGFPEISFQPSSAVVVTWESVAPYQGPSRDPDQKGKRNTFQAVLASSDSSSYAIFLYPEDGLQFHTTFSKKENNQVPAVVAFSQGSVGFLWKSNGAYNIFANDRESVENLAKSSNSGQQGVWVFEIGSPATTNGVVPADVILGTEDGAEYDDEDEDYDLATTRLGLEDVGTTPFSYKALRRGGADTYSVPSVLSPRRAATERPLGPPTERTRSFQLAVETFHQQHPQVIDVDEVEETGVVFSYNTDSRQTCANNRHQCSVHAECRDYATGFCCSCVAGYTGNGRQCVAEGSPQRVNGKVKGRIFVGSSQVPIVFENTDLHSYVVMNHGRSYTAISTIPETVGYSLLPLAPVGGIIGWMFAVEQDGFKNGFSITGGEFTRQAEVTFVGHPGNLVIKQRFSGIDEHGHLTIDTELEGRVPQIPFGSSVHIEPYTELYHYSTSVITSSSTREYTVTEPERDGASPSRIYTYQWRQTITFQECVHDDSRPALPSTQQLSVDSVFVLYNQEEKILRYALSNSIGPVREGSPDALQNPCYIGTHGCDTNAACRPGPRTQFTCECSIGFRGDGRTCYDIDECSEQPSVCGSHTICNNHPGTFRCECVEGYQFSDEGTCVAVVDQRPINYCETGLHNCDIPQRAQCIYTGGSSYTCSCLPGFSGDGQACQDVDECQPSRCHPDAFCYNTPGSFTCQCKPGYQGDGFRCVPGEVEKTRCQHEREHILGAAGATDPQRPIPPGLFVPECDAHGHYAPTQCHGSTGYCWCVDRDGREVEGTRTRPGMTPPCLSTVAPPIHQGPAVPTAVIPLPPGTHLLFAQTGKIERLPLEGNTMRKTEAKAFLHVPAKVIIGLAFDCVDKMVYWTDITEPSIGRASLHGGEPTTIIRQDLGSPEGIAVDHLGRNIFWTDSNLDRIEVAKLDGTQRRVLFETDLVNPRGIVTDSVRGNLYWTDWNRDNPKIETSYMDGTNRRILVQDDLGLPNGLTFDAFSSQLCWVDAGTNRAECLNPSQPSRRKALEGLQYPFAVTSYGKNLYFTDWKMNSVVALDLAISKETDAFQPHKQTRLYGITTALSQCPQGHNYCSVNNGGCTHLCLATPGSRTCRCPDNTLGVDCIEQK
B3: Heterogeneous nuclear ribonucleoproteins A2/B1 (protein, UniProt P22626 1-353, looked up)
Heterogeneous nuclear …: MEKTLETVPLERKKREKEQFRKLFIGGLSFETTEESLRNYYEQWGKLTDCVVMRDPASKRSRGFGFVTFSSMAEVDAAMAARPHSIDGRVVEPKRAVAREESGKPGAHVTVKKLFVGGIKEDTEEHHLRDYFEEYGKIDTIEIITDRQSGKKRGFGFVTFDDHDPVDKIVLQKYHTINGHNAEVRKALSRQEMQEVQSSRSGRGGNFGFGDSRGGGGNFGPGPGSNFRGGSDGYGSGRGFGDGYNGYGGGPGGGNFGGSPGYGGGRGGYGGGGPGYGNQGGGYGGGYDNYGGGNYGSGNYNDFGNYNQQPSNYGPMKSGNFGGSRNMGGPYGGGNYGPGGSGGSGGYGGRSRY
B4: Staphylococcal nuclease domain-containing protein 1 (protein, UniProt Q7KZF4 2-910, looked up)
Staphylococcal nuclease …: ASSAQSGGSSGGPAVPTVQRGIIKMVLSGCAIIVRGQPRGGPPPERQINLSNIRAGNLARRAAATQPDAKDTPDEPWAFPAREFLRKKLIGKEVCFTIENKTPQGREYGMIYLGKDTNGENIAESLVAEGLATRREGMRANNPEQNRLSECEEQAKAAKKGMWSEGNGSHTIRDLKYTIENPRHFVDSHHQKPVNAIIEHVRDGSVVRALLLPDYYLVTVMLSGIKCPTFRREADGSETPEPFAAEAKFFTESRLLQRDVQIILESCHNQNILGTILHPNGNITELLLKEGFARCVDWSIAVYTRGAEKLRAAERFAKERRLRIWRDYVAPTANLDQKDKQFVAKVMQVLNADAIVVKLNSGDYKTIHLSSIRPPRLEGENTQDKNKKLRPLYDIPYMFEAREFLRKKLIGKKVNVTVDYIRPASPATETVPAFSERTCATVTIGGINIAEALVSKGLATVIRYRQDDDQRSSHYDELLAAEARAIKNGKGLHSKKEVPIHRVADISGDTQKAKQFLPFLQRAGRSEAVVEYVFSGSRLKLYLPKETCLITFLLAGIECPRGARNLPGLVQEGEPFSEEATLFTKELVLQREVEVEVESMDKAGNFIGWLHIDGANLSVLLVEHALSKVHFTAERSSYYKSLLSAEEAAKQKKEKVWAHYEEQPVEEVMPVLEEKERSASYKPVFVTEITDDLHFYVQDVETGTQLEKLMENMRNDIASHPPVEGSYAPRRGEFCIAKFVDGEWYRARVEKVESPAKIHVFYIDYGNREVLPSTRLGTLSPAFSTRVLPAQATEYAFAFIQVPQDDDARTDAVDSVVRDIQNTQCLLNVEHLSAGCPHVTLQFADSKGDVGLGLVKEGLVMVEVRKEKQFQKVITEYLNAQESAKSARLNLWRYGDFRADDADEFGYSR
B5: Ribonuclease inhibitor (protein, UniProt P13489 2-461, looked up)
Ribonuclease inhibitor: SLDIQSLDIQCEELSDARWAELLPLLQQCQVVRLDDCGLTEARCKDISSALRVNPALAELNLRSNELGDVGVHCVLQGLQTPSCKIQKLSLQNCCLTGAGCGVLSSTLRTLPTLQELHLSDNLLGDAGLQLLCEGLLDPQCRLEKLQLEYCSLSAASCEPLASVLRAKPDFKELTVSNNDINEAGVRVLCQGLKDSPCQLEALKLESCGVTSDNCRDLCGIVASKASLRELALGSNKLGDVGMAELCPGLLHPSSRLRTLWIWECGITAKGCGDLCRVLRAKESLKELSLAGNELGDEGARLLCETLLEPGCQLESLWVKSCSFTAACCSHFSSVLAQNRFLLELQISNNRLEDAGVRELCQGLGQPGSVLRVLWLADCDVSDSSCSSLAATLLANHSLRELDLSNNCLGDAGILQLVESVRQPGCLLEQLVLYDIYWSEEMEDRLQALEKDKPSLRVIS
B6: SWISS-PROT: Q9DCV7 Tax_Id = 10090 Gene_Symbol = Krt7 Keratin, type II cytoskeletal 7 (protein, UniProt Q9DCV7 2-457, looked up)
Keratin, type II cytoskeletal …: SIHFSSRSTAYPGRGAQVRLSSGRASFGSRSLYGLGSSRPRVAVRSAYGGPVGAGIREITINQSLLAPLSVDIDPTIQQVRQEEREQIKTLNNKFASFIDKVRFLEQQNKMLETKWALLQEQKSAKSSQLPRIFEAQIAGLRQQLETLQLDGGRLEVELRNMQDVVEDFKNKYEEEINRRTAAENEFVLLKKDVDAAYTNKVELEAKADSLQDEINFLKTLHETELAELQSQISDTSVVLSMDNSRSLDLDGIIADVKAQYEEMANHSRAEAEAWYQTKFETLQAQAGKHGDDLRNTRNEIAEMNRSIQRLQAEIDTLKNQRAKLESSIAEAEEQGELAIKDAHAKQGELEAALQKAKQDVARQLREYQELLNTKLALDIEIATYRKLLEGEESRLSGDGMGPVNISVVNSTGGNGGKLIFGGTMGSNALSFSGGPGALRAYSIKTTSTTRRGTHN
B7: Serpin H1 (protein, UniProt P50454 19-418, looked up)
Serpin H1: AEVKKPAAAAAPGTAEKLSPKAATLAERSAGLAFSLYQAMAKDQAVENILVSPVVVASSLGLVSLGGKATTASQAKAVLSAEQLRDEEVHAGLGELLRSLSNSTARNVTWKLGSRLYGPSSVSFADDFVRSSKQHYNCEHSKINFRDKRSALQSINEWAAQTTDGKLPEVTKDVERTDGALLVNAMFFKPHWDEKFHHKMVDNRGFMVTRSYTVGVMMMHRTGLYNYYDDEKEKLQIVEMPLAHKLSSLIILMPHHVEPLERLEKLLTKEQLKIWMGKMQKKAVAISLPKGVVEVTHDLQKHLAGLGLTEAIDKNKADLSRMSGKKDLYLASVFHATAFELDTDGNPFDQDIYGREELRSPKLFYADHPFIFLVRDTQSGSLLFIGRLVRPKGDKMRDEL

assay: Composition of amniotic fluid cell-derived ECM by mass spectrometry (total spectra count); settings: protein component found by mass spectrometry in amniotic fluid cell-derived ECM Matrix A (Example 1)

B1 and B2 are the same in “Total Spectra Count Matrix A” value: 16 for the first, 16 for the second.

B3 and B4 are the same in “Total Spectra Count Matrix A” value: 15 for the first, 15 for the second.

B5 and B6 are the same in “Total Spectra Count Matrix A” value: 14 for the first, 14 for the second.

With B7 the “Total Spectra Count Matrix A” value was 64.

same assay, conditions: protein component found by mass spectrometry in amniotic fluid cell-derived ECM Matrix B (Example 1)

Going from B1 to B2, the “Total Spectra Count Matrix B” value rises from 37 to 56.

Compared with B3, B4 is lower in “Total Spectra Count Matrix B” value: 58 for the first, 33 for the second.

B5 and B6 are the same in “Total Spectra Count Matrix B” value: 0 for the first, 0 for the second.

In the case of B7, the “Total Spectra Count Matrix B” value is reported as 731.

same assay, conditions: protein component found by mass spectrometry in amniotic fluid cell-derived ECM Matrix C (Example 1)

First: B1
Second: B2
The “Total Spectra Count Matrix C” value of the first is lower: 0 for the first, 1 for the second.

Compared with B3, B4 is lower in “Total Spectra Count Matrix C” value: 6 for the first, 0 for the second.

Going from B5 to B6, the “Total Spectra Count Matrix C” value rises from 1 to 14.

For B7, the “Total Spectra Count Matrix C” value was 128.

same assay, conditions: protein component found by mass spectrometry in amniotic fluid cell-derived ECM Matrix D (Example 1)

Going from B1 to B2, the “Total Spectra Count Matrix D” value falls from 18 to 7.

Going from B3 to B4, the “Total Spectra Count Matrix D” value falls from 20 to 6.

First: B5
Second: B6
The “Total Spectra Count Matrix D” value of the first is lower: 8 for the first, 18 for the second.

For B7, the “Total Spectra Count Matrix D” value was 97.
